Taken from: PubChem BioAssay AID1259308 (NCATS, 2017)
This is one part, drawn at random, of about 59,000 reagents. Over the whole deposit, about 1,510 (2.6%) got an active call. 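Calls use total luciferase alone and ignore viability, so some active siRNAs may act by altering cell number.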 The numbers tell different reagents against one gene apart. Further read-outs or replicates are left out here. Reagent sequences are not shown.

- Screen: 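Candidate targets for better recombinant protein yield in mammalian cells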 (primary screen)
- Cells: human HEK293 embryonic kidney cells stably expressing firefly luciferase (HEK-CMV-Luc2-Hygro)
- Knock-down reagent: single siRNA against human genes, 0.8 pmol siRNA per well
- Timing: 72 h
- Measured: 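Reporter luminescence and viable-cell signal on separate replicate plates, given as percent of non-targeting control and median/MAD z-scores, plus per-cell luciferase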
- Scale: total luciferase, z-score and total luciferase, % of control: higher = more reporter protein produced; luciferase per cell, z-score: higher = more reporter output per viable cell
- Active means: 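Active when the median/MAD z-score for overall luciferase is greater than 3; a gene was taken forward for validation with new siRNAs if at least two of its three siRNAs passed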
- Calls: active = raised luciferase; inactive = no rise

| total luciferase, z-score | total luciferase, % of control | luciferase per cell, z-score | call | gene | siRNA no. |
| --- | --- | --- | --- | --- | --- |
| -1.69 | 48.4 | -2.13 | inactive | BTBD16 | 1 |
| -0.463 | 72.7 | -1.19 | inactive | BTBD16 | 2 |
| 0.0463 | 82.8 | 0.142 | inactive | BTBD16 | 3 |
| -0.201 | 77.9 | 0.46 | inactive | SORCS3 | 1 |
| -0.0821 | 80.3 | -0.0435 | inactive | SORCS3 | 2 |
| -0.906 | 63.9 | -1.71 | inactive | SORCS3 | 3 |
| -0.125 | 79.4 | -0.379 | inactive | DGKA | 1 |
| -1.34 | 55.1 | 1.08 | inactive | DGKA | 2 |
| -0.0649 | 80.6 | 1.26 | inactive | DGKA | 3 |
| -2.94 | 23.3 | -1.46 | inactive | RPL6 | 1 |
| -1.94 | 43.3 | -0.945 | inactive | RPL6 | 2 |
| -3.24 | 17.5 | -4.35 | inactive | RPL6 | 3 |
| -2.42 | 33.7 | 1.07 | inactive | LCN1P2 | 1 |
| -0.113 | 79.6 | 0.0703 | inactive | LCN1P2 | 2 |
| -0.837 | 65.2 | -1.39 | inactive | LCN1P2 | 3 |
| -0.169 | 78.5 | -0.387 | inactive | NPPA | 1 |
| 0.171 | 85.3 | 0.738 | inactive | NPPA | 2 |
| -1.67 | 48.8 | -0.992 | inactive | NPPA | 3 |
| 0.0208 | 82.3 | -0.397 | inactive | SEPTIN5 | 1 |
| 0.339 | 88.6 | 0.0618 | inactive | SEPTIN5 | 2 |
| -1.44 | 53.2 | -1.31 | inactive | SEPTIN5 | 3 |
| -1.46 | 52.9 | -1.51 | inactive | RNF40 | 1 |
| -1.78 | 46.5 | -0.635 | inactive | RNF40 | 2 |
| -1.25 | 57.1 | -0.781 | inactive | RNF40 | 3 |

Part of the list above, showing only “total luciferase, % of control”.
RPL6 #3 = 17.5
LCN1P2 #1 = 33.7
LCN1P2 #2 = 79.6
LCN1P2 #3 = 65.2
NPPA #1 = 78.5
NPPA #2 = 85.3
NPPA #3 = 48.8

Continued.
| total luciferase, z-score | total luciferase, % of control | luciferase per cell, z-score | call | gene | siRNA no. |
| --- | --- | --- | --- | --- | --- |
| 0.406 | 90 | 1.19 | inactive | DHRS7C | 1 |
| 0.156 | 85 | 0.31 | inactive | DHRS7C | 2 |
| -1.41 | 53.9 | -1.11 | inactive | DHRS7C | 3 |
| -0.102 | 79.9 | -0.367 | inactive | TAF9B | 1 |
| -0.578 | 70.4 | -1.36 | inactive | TAF9B | 2 |
| 0.644 | 94.7 | 0.801 | inactive | TAF9B | 3 |
| -0.754 | 66.9 | -0.0771 | inactive | FBXO4 | 1 |
| 0.92 | 100 | 0.417 | inactive | FBXO4 | 2 |
| 3 | 142 | 2.75 | active | FBXO4 | 3 |
| 0.0591 | 83.1 | -0.0153 | inactive | RXRB | 1 |
| -0.0106 | 81.7 | -0.587 | inactive | RXRB | 2 |
| -0.658 | 68.8 | -1.23 | inactive | RXRB | 3 |
| -2.46 | 32.9 | -0.94 | inactive | OR5K3 | 1 |
| -0.11 | 79.7 | 0.0603 | inactive | OR5K3 | 2 |
| -1.87 | 44.8 | -2.65 | inactive | OR5K3 | 3 |
| 1.97 | 121 | 1.47 | inactive | F2RL1 | 1 |
| 0.475 | 91.3 | 0.0935 | inactive | F2RL1 | 2 |
| 0.282 | 87.5 | -0.275 | inactive | F2RL1 | 3 |
| -0.611 | 69.7 | -0.832 | inactive | PLXNC1 | 1 |
| -0.111 | 79.7 | -0.616 | inactive | PLXNC1 | 2 |
| 0.306 | 88 | 0.0228 | inactive | PLXNC1 | 3 |
| -0.936 | 63.3 | -1.21 | inactive | TGFBI | 1 |
| 0.793 | 97.7 | 0.0175 | inactive | TGFBI | 2 |
| 5.52 | 192 | 3.33 | active | TGFBI | 3 |
| -0.63 | 69.4 | -0.406 | inactive | AMN1 | 1 |
| -0.762 | 66.7 | -0.46 | inactive | AMN1 | 2 |
| -0.428 | 73.4 | -0.465 | inactive | AMN1 | 3 |
| 1.02 | 102 | 0.775 | inactive | SPOP | 1 |
| 0.305 | 88 | 0.545 | inactive | SPOP | 2 |
| 0.311 | 88.1 | 0.398 | inactive | SPOP | 3 |
| -0.817 | 65.6 | -1.01 | inactive | SLC33A2 | 1 |
| -1.2 | 57.9 | -1.45 | inactive | SLC33A2 | 2 |
| -0.958 | 62.8 | -1.28 | inactive | SLC33A2 | 3 |
